# Percent effect of library compounds

Chains of the proteins cited; added tags and fusions are not shown. Residues count along the entry.
UniProt Q8IDJ8, 1-583: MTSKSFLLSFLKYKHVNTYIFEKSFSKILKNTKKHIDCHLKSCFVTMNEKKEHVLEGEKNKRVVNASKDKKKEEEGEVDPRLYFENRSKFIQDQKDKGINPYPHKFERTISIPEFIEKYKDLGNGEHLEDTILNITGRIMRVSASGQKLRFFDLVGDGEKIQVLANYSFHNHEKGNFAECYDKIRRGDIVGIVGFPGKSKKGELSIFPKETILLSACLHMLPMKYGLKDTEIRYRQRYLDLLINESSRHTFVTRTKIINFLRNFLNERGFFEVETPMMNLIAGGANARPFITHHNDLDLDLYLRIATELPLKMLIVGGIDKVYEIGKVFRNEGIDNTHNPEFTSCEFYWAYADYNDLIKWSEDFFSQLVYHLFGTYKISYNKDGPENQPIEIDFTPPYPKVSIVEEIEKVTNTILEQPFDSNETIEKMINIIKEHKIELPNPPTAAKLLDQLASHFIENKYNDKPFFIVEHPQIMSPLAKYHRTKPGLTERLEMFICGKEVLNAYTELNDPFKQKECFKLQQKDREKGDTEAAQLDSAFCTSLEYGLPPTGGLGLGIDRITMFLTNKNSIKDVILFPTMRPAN

A: 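Whole-parasite assay of Trypanosoma brucei over 72 hours; the read-out is not stated. Compounds at 30 µM. Higher reads as stronger inhibition (inferred: compounds with an IC50 in retests scored well above the rest). Values scatter widely below zero; nearly all retest evidence comes from the higher of the two concentrations used. Size under these conditions: about 64,000 compounds, about 940 of them at 50% or above in at least one test.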
B: 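Enzyme assay of the cytosolic lysyl-tRNA synthetase in 384-well plates, read by luminescence. Target: Lysine-tRNA ligase, Plasmodium falciparum 3D7 (UniProt Q8IDJ8). Tested at 30 µM. Direction is inferred from only a few compounds that gave an IC50; most scored high, so higher reads as stronger inhibition. About 69,000 compounds were tested under these conditions; 0.071% (about 49) showed 50% or more at least once.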

The filed quantity is “Percent Effect” (%).
The record does not define 0% and 100%; most values in the screen are far below 50% and negative numbers occur (in some assays of this library far below -100).
Compounds were drawn at random from those tested, without regard to their results.

{"structure": "CC(=O)N1CCCN(C(=O)NCCNc2ccccn2)CC1", "B": 1.681}
{"structure": "COc1ccc(F)c(CN2CCCC(O)(CNCc3ccoc3)C2=O)c1", "stereo": "stereo not drawn", "A": -0.246, "B": 0}
{"structure": "Cc1n[nH]cc1CNC1CCN(c2ccc(F)cc2)CC1.Cl", "A": -36.34}
{"structure": "CC(C)C[C@@H]1N[C@H](C(=O)NCC2CC2)Cc2c[nH]c3cccc1c23", "A": 62.49, "B": 5.649}
{"structure": "Cc1ccc(C(=O)N2CCC3(CCCN(c4ncc(F)cn4)C3)C2)cn1", "stereo": "stereo not drawn", "B": 2.876}
{"structure": "COCC(NC(=O)c1cc(C)n(C)n1)c1cccc(C(F)(F)F)c1", "stereo": "stereo not drawn", "A": -42.07, "B": 3.423}
{"structure": "O=C(O)C(F)(F)F.O=C(O)C(F)(F)F.c1cncc(C2COC3(CCN(Cc4nccs4)CC3)C2)c1", "stereo": "stereo not drawn", "A": -34.17}
{"structure": "CCn1nc2c(cc1=O)CN(CCOc1cccc(C#N)c1)CC2", "A": 13.61, "B": 6.547}
{"structure": "CN(C)C(=O)CO[C@@H]1CC[C@H]2[C@H]1OCCN2c1ncccn1", "B": 0.064}
{"structure": "CCN(C)C(=O)c1cccc(S(=O)(=O)NCCc2csc(N)n2)c1", "A": -107.4, "B": 2.236}
{"structure": "Fc1cccc(N2CCCC3(C2)CN(c2cnccn2)CCO3)c1", "stereo": "stereo not drawn", "A": -5.67, "B": -0.616}
{"structure": "CC(Cn1cccn1)NC(=O)NCCc1cccnc1", "stereo": "stereo not drawn", "A": -7.513, "B": 0.2636}
{"structure": "O=C(c1cc(-c2ccco2)nc2c(Cl)cccc12)N1CCS(=O)(=O)CC1", "A": -54.63, "B": 4.316}
{"structure": "CS(=O)(=O)NCc1n[nH]c2c1CCN(C(=O)c1ccsc1)C2", "A": -26.2, "B": -2.919}
{"structure": "Cc1cnccc1CNCc1ccc(OC23CCCN(CC2)C3)cc1", "stereo": "stereo not drawn", "A": 6.423, "B": 1.708}
{"structure": "COc1ccc(CNC(=O)NCCc2csc(C)n2)cn1", "A": 2.446, "B": -2.7}
{"structure": "c1csc(-c2nc(CN3CCCC3Cn3cccn3)co2)c1", "stereo": "stereo not drawn", "A": -12.8, "B": 3.445}
{"structure": "COC(=O)c1ccc(N2CCN(C(=O)CC(F)(F)F)C(C)C2)cc1", "stereo": "stereo not drawn", "A": -37.56, "B": -3.658}
{"structure": "Cc1ccoc1C(=O)NCc1ccnc(OCC(F)(F)F)c1", "A": 10.17, "B": 1.529}
{"structure": "CCc1n[nH]c(C2CN(C(=O)c3cnn(CC)c3)CCO2)n1", "stereo": "stereo not drawn", "B": -1.91}
{"structure": "N[C@@H]1CCC[C@@H](Oc2ccc(F)cc2Oc2ccccc2)[C@@H]1O", "A": 101.1, "B": -2.88}
{"structure": "O=C1CC[C@]2(CC[C@@H](NCc3ccsc3)CC2)N1Cc1ccccc1", "B": 2.598}
{"structure": "CCN1CCN(C(=O)c2cc(F)cc3nc(C)c(C)nc23)CC1", "A": -30.53, "B": 8.767}
{"structure": "CS(=O)(=O)c1ccccc1C(=O)NCC1Cc2ccccc2O1", "stereo": "stereo not drawn", "A": -62.77, "B": 8.821}
{"structure": "CCc1noc(CN(C)Cc2cc3ccc(Cl)cc3[nH]c2=O)n1", "A": 29.57, "B": 6.183}
{"structure": "COc1ccc(CNc2c(N3CCN(C(C)=O)CC3)c(=O)c2=O)cc1", "A": -1.244, "B": 3.191}
{"structure": "CC(=O)Nc1cccc2c1ccn2CC(=O)Nc1ncc[nH]1", "A": -16.49, "B": 4.007}
{"structure": "CC(Oc1cc(Cl)cc(Cl)c1)C(=O)NCCS(N)(=O)=O", "stereo": "stereo not drawn", "A": -6.892, "B": 0.7844}
{"structure": "CCc1ccccc1CN1CCn2nc(CNC(C)=O)cc2C1", "A": -49.45, "B": 1.542}
{"structure": "O[C@@H]1CN(Cc2ccc(F)cc2)CC[C@H]1NCc1ccccn1", "B": -1.542}
{"structure": "[H][C@@]12CCN(S(=O)(=O)N(C)C)C[C@@]1([H])O[C@H](c1ccnc(C)n1)C2", "A": -42.56}
{"structure": "[H][C@]12CC[C@]([H])(CN(Cc3noc(C4CCCC4)n3)C1)N(CC1CCC1)C2", "A": -34.38}
{"structure": "Cc1noc(C)c1CN1CCn2cc(CN3CCCC3)nc2C1.O=C(O)C(F)(F)F.O=C(O)C(F)(F)F", "A": 0.2362}
{"structure": "COCC1Cn2nnc(-c3cnn(C)c3)c2CN1Cc1ccsc1.O=C(O)C(F)(F)F", "stereo": "stereo not drawn", "A": 45.38}
{"structure": "COCC1COCCC12CCN(C(=O)CCOc1ccccc1)CC2", "stereo": "stereo not drawn", "A": -5.069, "B": 6.009}
{"structure": "CC(=O)c1cccc(OCCCC(=O)N(C)CCc2ccncc2)c1", "A": 3.621, "B": 0.6707}
{"structure": "Cc1cc(C)n(C2CCCN(C(=O)c3ccc(F)cc3F)C2)n1", "stereo": "stereo not drawn", "A": 59.51, "B": 11.36}
{"structure": "COc1cc(-c2n[nH]c(CC#N)n2)cc(OC)c1OC", "A": -31.07, "B": -2.471}
{"structure": "Cc1nc(C)c(CCNC(Cc2ccncc2)C(F)(F)F)s1", "stereo": "stereo not drawn", "A": -27.25, "B": -5.628}
{"structure": "Cc1cnc2n1CCN(C)C21CCN(C(=O)CC(C)C)CC1.O=C(O)C(F)(F)F", "A": 43.35}

Some entries from above, unchanged:

{"structure": "CCc1noc(CN(C)Cc2cc3ccc(Cl)cc3[nH]c2=O)n1", "A": 29.57, "B": 6.183}
{"structure": "Cc1cnc2n1CCN(C)C21CCN(C(=O)CC(C)C)CC1.O=C(O)C(F)(F)F", "A": 43.35}
{"structure": "CC(=O)Nc1cccc2c1ccn2CC(=O)Nc1ncc[nH]1", "A": -16.49, "B": 4.007}
{"structure": "COCC1COCCC12CCN(C(=O)CCOc1ccccc1)CC2", "stereo": "stereo not drawn", "A": -5.069, "B": 6.009}

Data taken from ChEMBL document CHEMBL3988442, “University of Dundee, Small-Polar-MMV Screening Library” (2021).